The source of these data is the supplement of paper PMC10735217.

In this experiment the test system is HEK293A TEAD-LUC reporter. Put plainly: TEAD-luciferase reporter activity (YAP activation), robust Z score vs plate; higher = stronger YAP/TEAD activation. Particulars: 24 h. For orientation: In a reporter assay the amount or activity of a reporter protein is the signal.

SMILES strings stand for the structures. This is one part of the list. Single values are uncertain here, since repeats match poorly.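 The human kidney-derived cells carry a stably integrated construct of eight TEAD-binding elements driving luciferase, read by luminescence in a drug-repurposing library screen. A compound counts as a hit when its signal is more than five robust Z scores above the plate mean.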

In the case of `CN(C)CCCOC(CCCCc1ccccc1)c1ccccc1` (stereo not drawn), the TEAD-luciferase reporter activity was inactive: 0.952 (compound concentration: 200 nM), inactive: -1.23 (compound concentration: 2 uM) and inactive: -0.299 (compound concentration: 10 uM).
For `CCN(CC)CC(=O)Nc1c(C)cccc1C(=O)OC` the same measures were inactive: -0.329, inactive: -0.318 and inactive: 0.0174.
As to `CC(C)=CCc1c(O)cc(O)c2c(=O)c(O)c(-c3ccc(C(F)(F)F)cc3)oc12`, the TEAD-luciferase reporter activity runs as follows: (compound concentration: 200 nM) inactive: -0.427; (compound concentration: 2 uM) inactive: 1.33; (compound concentration: 10 uM) inactive: 2.45.
Consider `CC(=O)Oc1ccc(/N=N/c2ccc(S(=O)(=O)Nc3nc(C)cc(C)n3)cc2)cc1C(=O)O` [disalazine], for which the TEAD-luciferase reporter activity was active: 5.96 (compound concentration: 200 nM), inactive: -1.3 (compound concentration: 2 uM) and inactive: -3.06 (compound concentration: 10 uM).
For `CC1CCCN(Cc2cccc(OCCCNC(=O)c3ccc[n+]([O-])c3)c2)C1` (stereo not drawn), the TEAD-luciferase reporter activity was inactive: -2.13 (compound concentration: 200 nM), inactive: -0.639 (compound concentration: 2 uM) and inactive: 2.08 (compound concentration: 10 uM).
On the same counts, the results for `CC(C)C[C@H](NC(=O)[C@@H]1CCCC(=O)N1)C(=O)N1CCC[C@H]1C(N)=O` are inactive: -0.094, inactive: -1.15 and inactive: 2.73.
With `C[C@H](c1ccc(F)cc1CCCC(=O)O)N(c1cc(F)ccc1F)S(=O)(=O)c1ccc(Cl)cc1`, the TEAD-luciferase reporter activity runs as follows: (compound concentration: 200 nM) inactive: 0.173; (compound concentration: 2 uM) inactive: -1.17; (compound concentration: 10 uM) inactive: 3.52.
Turning to `O=C(NC1CCCC1)NC1CCN(c2nc3ncccc3o2)CC1`, the TEAD-luciferase reporter activity runs as follows: (compound concentration: 200 nM) inactive: -1.13; (compound concentration: 10 uM) inactive: 1.42.
Consider `COc1ccc2cc(OCC3(C(=O)O)CN(C(=O)c4ccc(F)cc4)C3)ccc2c1`, for which the TEAD-luciferase reporter activity was inactive: -0.66 (compound concentration: 200 nM), inactive: -0.735 (compound concentration: 2 uM) and inactive: 1.63 (compound concentration: 10 uM).
For `N#Cc1c(N)[nH]c2ccc(Sc3ccccc3)cc12` [amphethinile] the same measures were inactive: -0.391, inactive: 1.69 and inactive: -1.25.
As for `Cc1cccc(C(O)CNC(=O)C2CCN(C(=O)Cn3c(=O)sc4ccc(Cl)cc43)CC2)n1` (stereo not drawn), the TEAD-luciferase reporter activity runs as follows: (compound concentration: 200 nM) inactive: -1.42; (compound concentration: 2 uM) inactive: 1.09; (compound concentration: 10 uM) inactive: -1.65.
In the case of `Cc1ccc(-c2ncccn2)c(C(=O)N2C[C@H](COc3ccc(F)cn3)CC[C@H]2C)c1` [Filorexant], the TEAD-luciferase reporter activity runs as follows: (compound concentration: 200 nM) inactive: -0.994; (compound concentration: 2 uM) active: 6.51; (compound concentration: 10 uM) inactive: 1.59.
Regarding `COc1ccc(S(=O)(=O)N(CC(C)C)CC(O)[C@H](Cc2ccc(CNCCP(=O)(O)O)cc2)NC(=O)O[C@H]2CO[C@H]3OCC[C@H]32)cc1` (stereo partly drawn), the TEAD-luciferase reporter activity was inactive: 0.0902 (compound concentration: 200 nM), inactive: -1.23 (compound concentration: 2 uM) and inactive: 1.35 (compound concentration: 10 uM).
With `CN(C)C(=O)c1cccc(COc2ccc(N3C(N)=NC(N)=NC3(C)C)cc2Cl)c1`, the TEAD-luciferase reporter activity (compound concentration: 200 nM) is inactive: 1.9 and the TEAD-luciferase reporter activity (compound concentration: 10 uM) is inactive: -1.72.
On to `CN(C)C(=O)c1cccc(COc2ccc(N3C(N)=NC(N)=NC3(C)C)cc2Cl)c1` [Triazinate], for which, for the setting “compound concentration: 2 uM”, the TEAD-luciferase reporter activity is inactive: -0.628.
Turning to `COc1ccc(CCN(C)CCCC(C#N)(c2cc(OC)c(OC)c(OC)c2)C(C)C)cc1OC` (stereo not drawn) [gallopamil], the TEAD-luciferase reporter activity runs as follows: (compound concentration: 200 nM) inactive: 0.984; (compound concentration: 2 uM) inactive: -1.17; (compound concentration: 10 uM) inactive: -1.62.
For `Cc1c(Cl)cccc1S(=O)(=O)N1CCC[C@H](C(=O)NC2CCCCC2)C1` the same measures were inactive: -1.65, inactive: -1.68 and inactive: -0.599.
`O=C(Oc1ccccc1)c1ccc2ccccc2c1O`: the TEAD-luciferase reporter activity runs as follows: (compound concentration: 200 nM) inactive: 2.16; (compound concentration: 2 uM) inactive: -0.911; (compound concentration: 10 uM) inactive: 2.86.
Regarding `CCC[C@@H]1O[C@@H]2C[C@H]3[C@@H]4C[C@H](F)C5=CC(=O)CC[C@]5(C)[C@@]4(F)[C@@H](O)C[C@]3(C)[C@]2(SC)O1`, the TEAD-luciferase reporter activity was inactive: -0.336 (compound concentration: 200 nM), inactive: 0.815 (compound concentration: 2 uM) and inactive: 0.972 (compound concentration: 10 uM).
On the same counts, the results for `CO/N=C(\C(=O)N[C@@H]1C(=O)N2C(C(=O)O)=C(Cn3nnc(C)n3)CS[C@H]12)c1csc(N)n1` [Cefteram pivoxil] are inactive: 0.461, inactive: 0.0106 and inactive: 0.441.
On to `Cc1cccc(Nc2cc(Cl)nc(SCC(=O)NCCO)n2)c1C` [pirinixil], for which the TEAD-luciferase reporter activity was inactive: -1.44 (compound concentration: 200 nM), inactive: -0.924 (compound concentration: 2 uM) and inactive: 0.447 (compound concentration: 10 uM).
On to `O=C1CC2CCCC(C1)N2C(=O)c1ccc2c(c1)OCO2`, for which the TEAD-luciferase reporter activity is inactive: 0.214 (compound concentration: 200 nM) and inactive: -0.924 (compound concentration: 10 uM).
For the compound `CC(=O)OCC(=O)[C@@]1(O)[C@H](OC(C)=O)C[C@H]2[C@@H]3CCC4=CC(=O)C=C[C@]4(C)[C@@]3(F)[C@@H](O)C[C@@]21C` [triamcinolone acetate], the TEAD-luciferase reporter activity (compound concentration: 2 uM) was inactive: -0.327.
For `CC(=O)OCC(=O)[C@@]1(O)[C@H](OC(C)=O)C[C@H]2[C@@H]3CCC4=CC(=O)C=C[C@]4(C)[C@@]3(F)[C@@H](O)C[C@@]21C` [triamcinolone acetate, Foamix], the TEAD-luciferase reporter activity is inactive: 1.47 (compound concentration: 200 nM) and inactive: 3.5 (compound concentration: 10 uM).
Regarding `CC(CN(C)C)CN1c2ccccc2Sc2ccc(C#N)cc21` (stereo not drawn) [Cyamemazine], the TEAD-luciferase reporter activity is inactive: -3.27 (compound concentration: 200 nM), inactive: -0.532 (compound concentration: 2 uM) and inactive: -0.375 (compound concentration: 10 uM).
`CC(C)C1O[C@@H]2C[NH2+][Pt-2]3([NH2+]C[C@H]2O1)[O]C(=O)CC(=O)[O]3` [Eptaplatin]: the TEAD-luciferase reporter activity (compound concentration: 200 nM) is inactive: -0.908, the TEAD-luciferase reporter activity (compound concentration: 2 uM) is inactive: -0.866 and the TEAD-luciferase reporter activity (compound concentration: 10 uM) was inactive: -1.72.
`Cc1ccc(C(=O)c2cccn2C/C=C/c2cccc(OCC(=O)O)c2)cc1`: the TEAD-luciferase reporter activity (compound concentration: 200 nM) is inactive: -2.38, the TEAD-luciferase reporter activity (compound concentration: 2 uM) was inactive: -0.854 and the TEAD-luciferase reporter activity (compound concentration: 10 uM) is inactive: 0.879.
